Values from PubChem BioAssay AID1259331 (Drosophila RNAi Screening Center, 2017).
This is an unselected part of about 3,100 reagents. Over the whole deposit, 126 (4.1%) got an active call. 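Calls are per reagent; zinc was so toxic that few knock-downs lowered ATP further, so most hits raise ATP.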 Raw values vary from plate to plate and are shown uncorrected. Entries without a mark were called inactive. Not given: the amount of reagent.

Test: 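Fly transmembrane-protein genes that affect zinc toxicity in cultured cells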 (primary screen)
System: Drosophila S2R+ cells
Reagent: long dsRNA against Drosophila genes
Timing: 5 days (4 days knock-down, then 1 day zinc)
Treatment: zinc chloride at 15 mM final level for 1 day
Detection: 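Luminescent ATP assay standing in for viability; Z score is the mean over three replicate plates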
Scale: mean Z score: higher = more ATP than other wells, better survival under zinc; ATP luminescence: higher = more ATP, more viable cells
Rule for the call: 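a reagent is called a hit when its Z score is above 1.5 or below -1.5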
Meaning of the calls: active = hit, ATP up or down; inactive = not a hit

What is on record for CG13893 [DRSC08363]?
mean Z score: 0.53; ATP luminescence, replicate 1: 85982; ATP luminescence, replicate 2: 78534

With CG13893 [DRSC39792], what does the deposit list?
mean Z score: 0.199; ATP luminescence, replicate 1: 55590; ATP luminescence, replicate 2: 62673

How did the screen score Mdr50 (Multi drug resistance 50) [DRSC07467]?
mean Z score: -0.0559; ATP luminescence, replicate 1: 70738; ATP luminescence, replicate 2: 71762

How did the screen score Mdr50 (Multi drug resistance 50) [DRSC23705]?
mean Z score: -0.0816; ATP luminescence, replicate 1: 55813; ATP luminescence, replicate 2: 54081

How did the screen score CG12438 [DRSC02167]?
mean Z score: 0.488; ATP luminescence, replicate 1: 55788; ATP luminescence, replicate 2: 38925

For Gr47a (Gustatory receptor 47a) [DRSC06221], how do the results read?
mean Z score: -0.108; ATP luminescence, replicate 1: 90631; ATP luminescence, replicate 2: 68812

For Gr47a (Gustatory receptor 47a) [DRSC39508], what was measured?
mean Z score: -0.287; ATP luminescence, replicate 1: 49589; ATP luminescence, replicate 2: 43794

What did the screen give for Elovl7 (ELOVL fatty acid elongase 7) [DRSC15452]?
mean Z score: -0.945; ATP luminescence, replicate 1: 33662; ATP luminescence, replicate 2: 43502

How did the screen score Elovl7 (ELOVL fatty acid elongase 7) [DRSC21570]?
mean Z score: 2.24 (active); ATP luminescence, replicate 1: 72654; ATP luminescence, replicate 2: 76462

For Elovl7 (ELOVL fatty acid elongase 7) [DRSC25259], what does the deposit list?
mean Z score: -0.255; ATP luminescence, replicate 1: 54682; ATP luminescence, replicate 2: 60289

A few values from the entries so far:
For “mean Z score”, Elovl7 (ELOVL fatty acid elongase 7) [DRSC15452] is entered as -0.945
Value of Mdr50 (Multi drug resistance 50) [DRSC23705] under “mean Z score”: -0.0816

More results follow:
How did the screen score MFS16 (Major Facilitator Superfamily Transporter 16) [DRSC04051]?
mean Z score: 0.15; ATP luminescence, replicate 1: 53704; ATP luminescence, replicate 2: 42885

For MFS16 (Major Facilitator Superfamily Transporter 16) [DRSC26536], what does the deposit list?
mean Z score: 0.131; ATP luminescence, replicate 1: 63650; ATP luminescence, replicate 2: 57580

What did the screen give for CG12290 [DRSC14497]?
mean Z score: -0.554; ATP luminescence, replicate 1: 41685; ATP luminescence, replicate 2: 38359

Which result is listed for CG12290 [DRSC28328]?
mean Z score: -0.323; ATP luminescence, replicate 1: 50481; ATP luminescence, replicate 2: 62450

What is on record for ste24a (prenyl protease type I) [DRSC07314]?
mean Z score: -0.0376; ATP luminescence, replicate 1: 30642; ATP luminescence, replicate 2: 31716

Which result is listed for ste24a (prenyl protease type I) [DRSC26491]?
mean Z score: -0.451; ATP luminescence, replicate 1: 61249; ATP luminescence, replicate 2: 56225
